From patent US20210052528A1, “THE USE OF SGC ACTIVATORS AND SGC STIMULATORS FOR THE TREATMENT OF COGNITIVE IMPAIRMENT” (Bayer Aktiengesellschaft, priority 2018, published 2021)

Test system: male Wistar rats
Assay: Object Location Task (OLT), learning and memory improvement in vivo
Parameters: species or system rat
Conditions: 1.0 mg/kg p.o. 30 min before T1, 24 h interval
Source text: The aim of the non-clinical studies was to test the effects of the compounds of formula (5) and (6) (sGC stimulators) and the sGC activators (compounds of formula (1) and (2)) on learning and memory improvement. Therefore, the well accepted Object Location Task (OLT) in rats was used. This task allows the assessment of acquisition, consolidation and retrieval of (spatial) information into memory, and is derived from the Object Recognition Task (ORT) (e.g. Ennaceur and Delacour, 1988; Prickaerts et al., 1997).
All experimental procedures were approved by the local ethical committee of Maastricht University for animal experiments and met governmental guidelines. Twenty-four 3-4-months-old male Wistar rats (Charles River, Sulzfeld, Germany) were used (average body weight at the beginning of the study: cohort 1 (compounds of formula (5) and (6)): 292 g; cohort 2 (compound of formula (1) and (2)): 334 g). The animals were housed individually in a standard IVC cage system on sawdust bedding in an air-conditioned room (about 20° C.). They were kept under a reversed 12/12 h light/dark cycle (lights on from 19.00 to 07.00) and had free access to food and water. Rats were housed and tested in the same room. A radio, which was playing softly, provided background noise in the room. All testing was done between 09.00 and 17.00. […]

With `COc1cc2c(cc1OC)C(=O)C(CC1CCN(Cc3ccccc3)CC1)C2` (centres unmarked) [donepezil, reference compound] the “memory performance, discrimination index (d2), compared with chance level (d2=0)” value (one-sample t-test) was “improved memory” and the “memory performance, discrimination index (d2), compared to the vehicle condition” value (one-way ANOVA, LSD t-tests) was “improved memory”.
